Reference: PMC8546604

Test system: MucR1 (Sinorhizobium fredii CCBAU45436 (SF45436))
Assay: EMSA
Conditions: 4.5 and 13.5 uM protein; 25 mM Tris-HCl pH 8.0, 5% glycerol, 0.05% n-dodecyl-beta-D-maltoside, 0.5 mg/ml BSA, 0.1 mg/ml sonicated salmon sperm DNA, 12.3 nM Cy5-DNA; 20 C, 30 min; recombinant protein; label: 5'-Cy5 on sense strand

Does “GCTGCGTTCCGAGCCGGTGCGCGCTCCGGCCGGGAGCGCATCGCA (double strand) [c04750 promoter (Cy5-c04750IR), 45 bp]” bind?
Result: no binding

For at least one entry, the source does not settle the construct or the ends of the probe. Negatives hold for the conditions tested. At least one verdict was read from the data and is not stated in words by the source.
